Values from PubChem BioAssay AID1224826 (NIAID, 2016).
Test: 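Genes that change LPS-induced Tnf promoter activity in mouse macrophages when knocked down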 (primary screen). Cell system: RAW264.7 G9 macrophages from mouse bearing reporters for p65 (GFP) and the Tnf promoter (mCherry). Reagents: siRNA pool against mouse genes, 100 nM. Duration: 16 h of LPS stimulation, after 2 days of siRNA transfection. Treatment: bacterial lipopolysaccharide (Salmonella minnesota R595), 10 ng/ml. Detection: 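Nuclear mCherry signal of the Tnf promoter reporter measured by imaging after background removal, scaled to each plate median and turned into robust z-scores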. Reading the numbers: Tnf reporter robust z-score: higher = stronger Tnf promoter reporter signal after LPS. Call rule: 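Called active when robust z-score is at most -1.3, matching the median of the Tlr4 knock-down control, or over 3; control wells and wells with under 50 cells never active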. Meaning of the calls: active = Tnf reporter clearly lowered or raised; inactive = no clear change in Tnf reporter.
Shown is one part, drawn at random, of about 17,000 reagents. Over the whole deposit, about 1,110 (6.6%) got an active call. 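Active means lowered or raised reporter signal; replicate intensities are raw and not normalised per plate.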 Not all columns of the deposit are shown.

no.	target	Tnf reporter robust z-score	fewer than 50 cells in well	call
1	Chst14 (GeneID 72136)	-1.21	enough cells in well	inactive
2	Or4p22 (GeneID 258820)	0.66	enough cells in well	inactive
3	Galk1 (GeneID 14635)	-1.5	enough cells in well	active
4	Acox2 (GeneID 93732)	-1.61	enough cells in well	active
5	Agmo (GeneID 319660)	-0.5	enough cells in well	inactive
6	Chmp4c (GeneID 66371)		fewer than 50 cells per well; well left out of calls	inactive
7	Pitpna (GeneID 18738)	0.11	enough cells in well	inactive
8	Krtap19-4 (GeneID 170654)	1.13	enough cells in well	inactive
9	Nup210 (GeneID 54563)	-1.75	enough cells in well	active
10	H2-M3 (GeneID 14991)	0.19	enough cells in well	inactive
11	Rab3gap2 (GeneID 98732)	1.48	enough cells in well	inactive
12	Cenpn (GeneID 72155)	0.91	enough cells in well	inactive
13	Hs6st3 (GeneID 50787)	-1.64	enough cells in well	active
14	Cfap57 (GeneID 68625)	0.09	enough cells in well	inactive
15	Rps19bp1 (GeneID 66538)		fewer than 50 cells per well; well left out of calls	inactive
16	Mapk3 (GeneID 26417)	-0.72	enough cells in well	inactive
17	Sfr1 (GeneID 67788)	-0.4	enough cells in well	inactive
18	Cfdp1 (GeneID 23837)	-0.46	enough cells in well	inactive
19	Mtap (GeneID 66902)	0.06	enough cells in well	inactive
20	Pogz (GeneID 229584)	-0.1	enough cells in well	inactive
21	Adgra3 (GeneID 70693)	-0.04	enough cells in well	inactive
22	Adamtsl1 (GeneID 77739)	0.21	enough cells in well	inactive
23	Dnm2 (GeneID 13430)	-1.66	enough cells in well	active
24	H2az1 (GeneID 51788)	-1.01	enough cells in well	inactive
25	Mapk8ip3 (GeneID 30957)	-1	enough cells in well	inactive
26	Prss35 (GeneID 244954)	-0.74	enough cells in well	inactive
27	Krt71 (GeneID 56735)	-1.57	enough cells in well	active
28	Rbm8a (GeneID 60365)	1.67	enough cells in well	inactive
29	Prl3d1 (GeneID 18775)	0.3	enough cells in well	inactive
30	Brwd1 (GeneID 93871)	-0.24	enough cells in well	inactive
31	Cdk1 (GeneID 12534)		fewer than 50 cells per well; well left out of calls	inactive
32	Dennd6b (GeneID 69440)		fewer than 50 cells per well; well left out of calls	inactive
33	Cfap298 (GeneID 68001)	3.36	enough cells in well	active
34	Jak2 (GeneID 16452)	-0.62	enough cells in well	inactive
35	Slc35f6 (GeneID 74919)		fewer than 50 cells per well; well left out of calls	inactive
36	Mdm2 (GeneID 17246)		fewer than 50 cells per well; well left out of calls	inactive
37	Samd14 (GeneID 217125)	-1.04	enough cells in well	inactive
38	Dtd2 (GeneID 328092)		fewer than 50 cells per well; well left out of calls	inactive
39	Or13c3 (GeneID 258821)	0.85	enough cells in well	inactive
40	Trim60 (GeneID 234329)	-0.48	enough cells in well	inactive
41	Isy1 (GeneID 57905)		fewer than 50 cells per well; well left out of calls	inactive
42	Dnajc7 (GeneID 56354)	0.37	enough cells in well	inactive
43	Gltp (GeneID 56356)	1.22	enough cells in well	inactive
44	Cct6b (GeneID 12467)	-0.08	enough cells in well	inactive
45	Hace1 (GeneID 209462)	-0.37	enough cells in well	inactive
46	Elovl6 (GeneID 170439)	0.22	enough cells in well	inactive
47	Tgfb1i1 (GeneID 21804)	-0.27	enough cells in well	inactive
48	Prdm8 (GeneID 77630)	-1.46	enough cells in well	active
49	Cdh22 (GeneID 104010)	2.5	enough cells in well	inactive
50	Clk3 (GeneID 102414)	-1.1	enough cells in well	inactive
51	Nav2 (GeneID 78286)	-0.17	enough cells in well	inactive
52	Or8w1 (GeneID 258833)	0.18	enough cells in well	inactive
53	Srpk3 (GeneID 56504)	-0.4	enough cells in well	inactive
54	Maml2 (GeneID 270118)	0.48	enough cells in well	inactive
55	Dnajb8 (GeneID 56691)	1.85	enough cells in well	inactive
56	Fmod (GeneID 14264)	0.09	enough cells in well	inactive
57	Ift27 (GeneID 67042)	-0.08	enough cells in well	inactive
58	Rps6ka6 (GeneID 67071)		fewer than 50 cells per well; well left out of calls	inactive
